Test results as given in patent US8235110B2, “Preconditioning an oilfield reservoir” (Gushor Inc., priority 2006, dated 2012).

Assay: Physical model recovery experiment on oil sand core sample flooded with water solution of preconditioning agent
Conditions: for Oil amount Recovered: 20 ml H2O saturated with agent, 225 g oil sand sample, recovery at 85° C.

Row | Structure (SMILES) | Oil amount Recovered | Viscosity of recovered oil (measured at 20° C.) | Viscosity of recovered oil (measured at 50° C.) | Viscosity of recovered oil (measured at 80° C.)
1 | Oc1ccccc1 [Phenol, phenol] | 9.9 g | 64691 cP | 2600 cP | 351 cP
2 | CCCC(C)=O [MPK, methyl propyl ketone] | 12.4 g | 18951 cP | 1461 cP | 288 cP
3 | COC(C)(C)C [MTBE, methyl tertiary-butyl ether] | 10.9 g | 50470 cP | 2498 cP | 401 cP
